Reference: PubChem BioAssay AID186 (DTP/NCI, 2004)
Shown are survivors of the treated group in tumour-free mice. Counts of survivors are from the toxicity check (mostly the fifth day) where no day follows; animals may have died later. Schedules are NCI's codes, read here as Q, the interval in days (D) or hours (H), X, the number of doses. Some entries hold several experiments; their values stand side by side, smallest first. Marks such as (2×) give the number of equal values in this list.

Test system: B6D2F1 mice, nontumored toxicity test, survival
Experiment: NCI In Vivo Anticancer Drug Screen. Data for tumor model Nontumored Animals (Toxicity Test) in B6D2F1 (BDF1) mice

SMILES: COc1cccc2c1C(=O)c1c(O)c3c(c(O)c1C2=O)C[C@@](O)(C(C)=O)C[C@@H]3OC1CC(N)C(O)C(C)O1 (stereo not given in full)
- survivor count (dose: 0.25 mg/kg/injection, schedule: Q04DX003 (ip), vehicle: saline): 4 of 4
- survivor count (dose: 0.28 mg/kg/injection, schedule: Q03HX008 (ip), vehicle: water): 6 of 6
- survivor count (dose: 0.47 mg/kg/injection, schedule: Q03HX008 (ip), vehicle: water): 6 of 6
- survivor count (dose: 0.5 mg/kg/injection, schedule: Q01DX009 (ip), vehicle: water): 6 of 6
- survivor count (dose: 0.5 mg/kg/injection, schedule: Q03HX024 (ip), vehicle: water): 6 of 6
- survivor count (dose: 0.5 mg/kg/injection, schedule: Q04DX003 (ip), vehicle: saline): 4 of 4
- survivor count (dose: 0.65 mg/kg/injection, schedule: Q03HX008 (ip), vehicle: water): 8 of 8
- survivor count (dose: 0.78 mg/kg/injection, schedule: Q03HX008 (ip), vehicle: water): 6 of 6
- survivor count (dose: 1.0 mg/kg/injection, schedule: Q01DX009 (ip), vehicle: water): 6 of 6
- survivor count (dose: 1.0 mg/kg/injection, schedule: Q03HX008 (ip), vehicle: water): 6 of 6
- survivor count (dose: 1.0 mg/kg/injection, schedule: Q03HX024 (ip), vehicle: water): 6 of 6
- survivor count (dose: 1.0 mg/kg/injection, schedule: Q04DX003 (ip), vehicle: saline): 4 of 4
- survivor count (dose: 1.08 mg/kg/injection, schedule: Q03HX008 (ip), vehicle: water): 8 of 8
- survivor count (dose: 1.17 mg/kg/injection, schedule: Q03HX008 (ip), vehicle: water): 6 of 6
- survivor count (dose: 1.75 mg/kg/injection, schedule: Q03HX008 (ip), vehicle: water): 2 of 6
- survivor count (dose: 1.75 mg/kg/injection, schedule: Q04DX003 (ip), vehicle: water): 6 of 6
- survivor count (dose: 1.8 mg/kg/injection, schedule: Q03HX008 (ip), vehicle: water): 8 of 8
- survivor count (dose: 2.0 mg/kg/injection, schedule: Q01DX009 (ip), vehicle: water): 6 of 6
- survivor count (dose: 2.0 mg/kg/injection, schedule: Q03HX008 (ip), vehicle: water): 6 of 6
- survivor count (dose: 2.0 mg/kg/injection, schedule: Q03HX024 (ip), vehicle: water): 5 of 6
- survivor count (dose: 2.0 mg/kg/injection, schedule: Q04DX003 (ip), vehicle: saline): 4 of 4
- survivor count (dose: 2.5 mg/kg/injection, schedule: Q01DX001 (ip), vehicle: water): 6 of 6
- survivor count (dose: 2.5 mg/kg/injection, schedule: Q04DX003 (ip), vehicle: water): 6 of 6
- survivor count (dose: 2.6 mg/kg/injection, schedule: Q04DX003 (ip), vehicle: water): 6 of 6
- survivor count (dose: 3.0 mg/kg/injection, schedule: Q03HX008 (ip), vehicle: water): 8 of 8
- survivor count (dose: 3.9 mg/kg/injection, schedule: Q01DX001 (ip), vehicle: water): 6 of 6
- survivor count (dose: 3.9 mg/kg/injection, schedule: Q04DX003 (ip), vehicle: water): 6 of 6
- survivor count (dose: 4.0 mg/kg/injection, schedule: Q03HX008 (ip), vehicle: water): 5 of 6
- survivor count (dose: 5.0 mg/kg/injection, schedule: Q01DX001 (ip), vehicle: water): 10 of 10 and 6 of 6 (2×)
- survivor count (dose: 5.0 mg/kg/injection, schedule: Q04DX003 (ip), vehicle: water): 6 of 6
- survivor count (dose: 5.0 mg/kg/injection, schedule: Q08DX002 (ip), vehicle: water): 6 of 6
- survivor count (dose: 5.9 mg/kg/injection, schedule: Q01DX001 (ip), vehicle: water): 6 of 6
- survivor count (dose: 5.9 mg/kg/injection, schedule: Q04DX003 (ip), vehicle: water): 6 of 6
- survivor count (dose: 8.9 mg/kg/injection, schedule: Q01DX001 (ip), vehicle: water): 5 of 6
- survivor count (dose: 8.9 mg/kg/injection, schedule: Q04DX003 (ip), vehicle: water): 6 of 6
- survivor count (dose: 10.0 mg/kg/injection, schedule: Q01DX001 (ip), vehicle: water): 10 of 10 and 6 of 6 (2×)
- survivor count (dose: 10.0 mg/kg/injection, schedule: Q04DX003 (ip), vehicle: water): 6 of 6
- survivor count (dose: 10.0 mg/kg/injection, schedule: Q08DX002 (ip), vehicle: water): 6 of 6
- survivor count (dose: 13.3 mg/kg/injection, schedule: Q01DX001 (ip), vehicle: water): 6 of 6
- survivor count (dose: 20.0 mg/kg/injection, schedule: Q01DX001 (ip), vehicle: water): 1 of 10, 4 of 6, 5 of 6, 6 of 6
- survivor count (dose: 20.0 mg/kg/injection, schedule: Q08DX002 (ip), vehicle: water): 6 of 6

SMILES: C[C@H](CN1CC(=O)NC(=O)C1)N1CC(=O)NC(=O)C1
- survivor count (dose: 8.0 mg/kg/injection, schedule: Q01DX009 (ip), vehicle: saline): 7 of 7 and 8 of 8
- survivor count (dose: 8.0 mg/kg/injection, schedule: Q01DX009 (oral), vehicle: saline): 7 of 7 and 8 of 8
- survivor count (dose: 8.0 mg/kg/injection, schedule: Q01DX009 (sc), vehicle: saline): 8 of 8
- survivor count (dose: 8.0 mg/kg/injection, schedule: Q03HX016 (ip), vehicle: saline): 8 of 8
- survivor count (dose: 8.0 mg/kg/injection, schedule: Q03HX024 (ip), vehicle: saline): 8 of 8
- survivor count (dose: 16.0 mg/kg/injection, schedule: Q01DX009 (ip), vehicle: saline): 8 of 8
- survivor count (dose: 16.0 mg/kg/injection, schedule: Q01DX009 (oral), vehicle: saline): 8 of 8
- survivor count (dose: 16.0 mg/kg/injection, schedule: Q01DX009 (sc), vehicle: saline): 8 of 8
- survivor count (dose: 16.0 mg/kg/injection, schedule: Q03HX016 (ip), vehicle: saline): 8 of 8
- survivor count (dose: 16.0 mg/kg/injection, schedule: Q03HX024 (ip), vehicle: saline): 8 of 8
- survivor count (dose: 32.0 mg/kg/injection, schedule: Q01DX009 (ip), vehicle: saline): 8 of 8
- survivor count (dose: 32.0 mg/kg/injection, schedule: Q01DX009 (oral), vehicle: saline): 7 of 8 and 8 of 8
- survivor count (dose: 32.0 mg/kg/injection, schedule: Q01DX009 (sc), vehicle: saline): 8 of 8
- survivor count (dose: 32.0 mg/kg/injection, schedule: Q03HX016 (ip), vehicle: saline): 7 of 8
- survivor count (dose: 32.0 mg/kg/injection, schedule: Q03HX024 (ip), vehicle: saline): 8 of 8
- survivor count (dose: 64.0 mg/kg/injection, schedule: Q01DX009 (ip), vehicle: saline): 8 of 8
- survivor count (dose: 64.0 mg/kg/injection, schedule: Q01DX009 (oral), vehicle: saline): 8 of 8
- survivor count (dose: 64.0 mg/kg/injection, schedule: Q01DX009 (sc), vehicle: saline): 8 of 8
- survivor count (dose: 64.0 mg/kg/injection, schedule: Q03HX016 (ip), vehicle: saline): 4 of 8
- survivor count (dose: 64.0 mg/kg/injection, schedule: Q03HX024 (ip), vehicle: saline): 7 of 8
- survivor count (dose: 64.0 mg/kg/injection, schedule: Q04DX003 (ip), vehicle: saline): 8 of 8
- survivor count (dose: 64.0 mg/kg/injection, schedule: Q04DX003 (sc), vehicle: saline): 8 of 8
- survivor count (dose: 64.0 mg/kg/injection, schedule: Q08DX002 (ip), vehicle: saline): 8 of 8
- survivor count (dose: 128.0 mg/kg/injection, schedule: Q01DX009 (oral), vehicle: saline): 8 of 8
- survivor count (dose: 128.0 mg/kg/injection, schedule: Q01DX009 (sc), vehicle: saline): 8 of 8
- survivor count (dose: 128.0 mg/kg/injection, schedule: Q03HX016 (ip), vehicle: saline): 7 of 8
- survivor count (dose: 128.0 mg/kg/injection, schedule: Q03HX024 (ip), vehicle: saline): 8 of 8
- survivor count (dose: 128.0 mg/kg/injection, schedule: Q04DX003 (ip), vehicle: saline): 8 of 8
- survivor count (dose: 128.0 mg/kg/injection, schedule: Q04DX003 (sc), vehicle: saline): 8 of 8
- survivor count (dose: 128.0 mg/kg/injection, schedule: Q08DX002 (ip), vehicle: saline): 8 of 8
- survivor count (dose: 256.0 mg/kg/injection, schedule: Q04DX003 (ip), vehicle: saline): 8 of 8
- survivor count (dose: 256.0 mg/kg/injection, schedule: Q04DX003 (oral), vehicle: saline): 8 of 8
- survivor count (dose: 256.0 mg/kg/injection, schedule: Q04DX003 (sc), vehicle: saline): 8 of 8
- survivor count (dose: 256.0 mg/kg/injection, schedule: Q08DX002 (ip), vehicle: saline): 8 of 8
- survivor count (dose: 512.0 mg/kg/injection, schedule: Q04DX003 (ip), vehicle: saline): 8 of 8
- survivor count (dose: 512.0 mg/kg/injection, schedule: Q04DX003 (oral), vehicle: saline): 8 of 8
- survivor count (dose: 512.0 mg/kg/injection, schedule: Q04DX003 (sc), vehicle: saline): 8 of 8
- survivor count (dose: 512.0 mg/kg/injection, schedule: Q08DX002 (ip), vehicle: saline): 8 of 8
- survivor count (dose: 1024.0 mg/kg/injection, schedule: Q04DX003 (ip), vehicle: saline): 8 of 8
- survivor count (dose: 1024.0 mg/kg/injection, schedule: Q04DX003 (oral), vehicle: saline): 8 of 8
- survivor count (dose: 1024.0 mg/kg/injection, schedule: Q04DX003 (sc), vehicle: saline): 8 of 8
- survivor count (dose: 1024.0 mg/kg/injection, schedule: Q08DX002 (ip), vehicle: saline): 8 of 8
- survivor count (dose: 2048.0 mg/kg/injection, schedule: Q04DX003 (oral), vehicle: saline): 7 of 8 and 8 of 8

SMILES: Cc1cc2c(c3oc(C4(C)OC4C4OC4C)cc(=O)c13)C(=O)c1c(O)c(C3CC(C)(N(C)C)C(O)C(C)O3)cc(C3CC(N(C)C)C(O)C(C)O3)c1C2=O (stereo not given)
- survivor count (dose: 0.12 mg/kg/injection, schedule: Q01DX001 (ip), vehicle: saline): 8 of 8
- survivor count (dose: 0.24 mg/kg/injection, schedule: Q01DX001 (ip), vehicle: saline): 8 of 8
- survivor count (dose: 0.48 mg/kg/injection, schedule: Q01DX001 (ip), vehicle: saline): 8 of 8
- survivor count (dose: 3.0 micrograms/kg/injection, schedule: Q01DX009 (ip), vehicle: saline): 8 of 8
- survivor count (dose: 6.0 micrograms/kg/injection, schedule: Q01DX009 (ip), vehicle: saline): 8 of 8
- survivor count (dose: 12.0 micrograms/kg/injection, schedule: Q01DX009 (ip), vehicle: saline): 8 of 8
